From doi:10.1101/2021.10.07.463531

Assays:
[1] = target: GST-Bicc1-KH (GST fusion of the entire KH tandem repeat of Bicc1) (UniProt Q99MQ1); experiment: pull-down
HA-Bicc1 ΔKH = HA-Bicc1 ΔKH (UniProt Q99MQ1); experiment: co-IP
HA-Bicc1 ΔKH-mutD = HA-Bicc1 ΔKH-mutD (UniProt Q99MQ1); experiment: co-IP

Molecule: HA-Bicc1 ΔKH (from UniProt Q99MQ1)
- binding [1]: binds weakly

B1: HA-Bicc1 (full-length, wild type) (protein, UniProt Q99MQ1 1-977)
chain: MASQSEPGYLAAAQSDPGSNSERSTDSPVAGSEDDLVAAAPLLHSPEWSEERFRVDRKKLEAMLQAAAEGKGRSGEDFFQKIMEETNTQIAWPSKLKIGAKSKKDPHIKVSGKKEDVKEAKEMIMSVLDTKSNRVTLKMDVSHTEHSHVIGKGGNNIKKVMEDTGCHIHFPDSNRNNQAEKSNQVSIAGQPAGVESARARIRELLPLVLMFELPIAGILQPVPDPNTPSIQHISQTYSVSVSFKQRSRMYGATVTVRGSQNNTNAVKEGTAMLLEHLAGSLASAIPVSTQLDIAAQHHLFMMGRNGSNVKHIMQRTGAQIHFPDPSNPQKKSTVYLQGTIESVCLARQYLMGCLPLVLMFDMKEDIEVDPQVIAQLMEQLDVFISIKPKPKQPSKSVIVKSVERNALNMYEARKCLLGLESSGVSIATSLSPASCPAGLACPSLDILASAGLGLTGLGLLGPTTLSLNTSATPNSLLNALNTSVSPLQSSSSGTPSPTLWAPPIANTASATGFSTIPHLMLPSTAQATLTNILLSGVPTYGHTAPSPPPGLTPVDVHINSMQTEGKNISASINGHVQPANMKYGPLSTSSLGEKVLSSNHGDPSMQTAGPEQASPKSNSVEGCNDAFVEVGMPRSPSHSGNAGDLKQMLGASKVSCAKRQTVELLQGTKNSHLHGTDRLLSDPELSATESPLADKKAPGSERAAERAAAAQQKSERARLASQPTYVHMQAFDYEQKKLLATKAMLKKPVVTEVRTPTNTWSGLGFSKSMPAETIKELRRANHVSYKPTMTTAYEGSSLSLSRSSSREHLASGSESDNWRDRNGIGPMGHSEFSAPIGSPKRKQNKSREHYLSSSNYMDCISSLTGSNGCNLNSCFKGSDLPELFSKLGLGKYTDVFQQQEIDLQTFLTLTDQDLKELGITTFGARRKMLLAISELSKNRRKLFEPPNASCTSFLEGGASGRLPRQYHSDIASVSGRW
- binding [1]: binds

The remaining lines, values ahead:

- binding [1]: binds
Molecule: HA-Bicc1 ΔSAM (from UniProt Q99MQ1)

- binding (HA-Bicc1 ΔKH): binds
- binding (HA-Bicc1 ΔKH-mutD): no binding
B2: GFP-Bicc1 (protein, UniProt Q99MQ1 1-977)
chain: B1 chain

No constants are given. Whether binding was seen depends on the method and setting. In cells and extracts the contact can be indirect. For some assays here: A result given as binding can be weak or reduced; the word gives no strength. Sequences can lack the tags named with a protein. Each block holds one molecule with its values, some of them ahead of it.
